Experimental data: the supplement of paper PMC10849652
This is one part of the list.

By UniProt entry, the sequences of proteins in these tests, tags left out. Where a name states a change or a piece, a line headed by the entry shows the natural chain unless it says otherwise.
UniProt P48047: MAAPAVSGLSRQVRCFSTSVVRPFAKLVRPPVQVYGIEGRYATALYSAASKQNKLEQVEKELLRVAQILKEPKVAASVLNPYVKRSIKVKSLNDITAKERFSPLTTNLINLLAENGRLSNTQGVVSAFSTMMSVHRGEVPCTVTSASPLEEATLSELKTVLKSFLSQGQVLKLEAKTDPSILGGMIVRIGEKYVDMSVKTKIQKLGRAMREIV
UniProt P21283, whole entry, looked up: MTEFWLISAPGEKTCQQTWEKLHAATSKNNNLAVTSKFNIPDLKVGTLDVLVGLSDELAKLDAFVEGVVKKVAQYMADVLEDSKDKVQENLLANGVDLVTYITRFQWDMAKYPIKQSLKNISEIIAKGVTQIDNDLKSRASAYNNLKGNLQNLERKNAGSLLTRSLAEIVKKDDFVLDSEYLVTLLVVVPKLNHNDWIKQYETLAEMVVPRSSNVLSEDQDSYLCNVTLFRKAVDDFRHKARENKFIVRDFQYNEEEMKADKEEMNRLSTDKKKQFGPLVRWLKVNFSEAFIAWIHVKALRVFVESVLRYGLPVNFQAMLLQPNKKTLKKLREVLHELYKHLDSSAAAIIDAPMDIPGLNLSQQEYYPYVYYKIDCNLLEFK
UniProt P23634: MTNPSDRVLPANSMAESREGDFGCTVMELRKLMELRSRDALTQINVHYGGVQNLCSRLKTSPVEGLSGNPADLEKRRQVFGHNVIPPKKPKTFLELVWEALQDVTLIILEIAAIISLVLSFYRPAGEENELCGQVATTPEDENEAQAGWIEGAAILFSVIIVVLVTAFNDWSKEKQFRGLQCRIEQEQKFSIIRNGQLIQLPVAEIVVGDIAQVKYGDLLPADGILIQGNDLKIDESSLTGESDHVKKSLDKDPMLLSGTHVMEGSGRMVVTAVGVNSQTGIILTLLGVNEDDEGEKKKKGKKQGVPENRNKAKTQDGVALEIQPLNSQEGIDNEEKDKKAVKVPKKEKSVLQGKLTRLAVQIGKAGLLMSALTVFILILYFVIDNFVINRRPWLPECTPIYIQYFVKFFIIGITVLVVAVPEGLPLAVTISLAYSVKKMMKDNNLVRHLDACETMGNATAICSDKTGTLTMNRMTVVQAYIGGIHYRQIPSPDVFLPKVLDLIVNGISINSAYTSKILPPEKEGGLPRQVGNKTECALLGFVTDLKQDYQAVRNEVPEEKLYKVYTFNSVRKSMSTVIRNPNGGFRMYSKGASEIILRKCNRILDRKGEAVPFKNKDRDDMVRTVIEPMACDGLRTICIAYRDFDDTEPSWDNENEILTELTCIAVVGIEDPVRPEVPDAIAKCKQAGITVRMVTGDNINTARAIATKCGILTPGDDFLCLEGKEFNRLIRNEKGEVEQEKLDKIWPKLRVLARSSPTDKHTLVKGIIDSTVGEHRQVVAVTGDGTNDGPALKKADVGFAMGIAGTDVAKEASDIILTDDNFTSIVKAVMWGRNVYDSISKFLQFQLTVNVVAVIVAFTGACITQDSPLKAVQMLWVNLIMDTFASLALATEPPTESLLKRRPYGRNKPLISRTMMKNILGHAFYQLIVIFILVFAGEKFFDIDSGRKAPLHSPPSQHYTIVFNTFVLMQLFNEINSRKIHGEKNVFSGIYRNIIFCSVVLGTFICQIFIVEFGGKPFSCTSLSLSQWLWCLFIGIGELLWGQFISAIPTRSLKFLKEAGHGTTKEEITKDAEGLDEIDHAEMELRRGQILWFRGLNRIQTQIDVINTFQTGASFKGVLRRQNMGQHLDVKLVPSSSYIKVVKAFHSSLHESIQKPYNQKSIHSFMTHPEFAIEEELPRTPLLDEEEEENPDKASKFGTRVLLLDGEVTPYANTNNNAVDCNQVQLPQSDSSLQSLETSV
UniProt P31939: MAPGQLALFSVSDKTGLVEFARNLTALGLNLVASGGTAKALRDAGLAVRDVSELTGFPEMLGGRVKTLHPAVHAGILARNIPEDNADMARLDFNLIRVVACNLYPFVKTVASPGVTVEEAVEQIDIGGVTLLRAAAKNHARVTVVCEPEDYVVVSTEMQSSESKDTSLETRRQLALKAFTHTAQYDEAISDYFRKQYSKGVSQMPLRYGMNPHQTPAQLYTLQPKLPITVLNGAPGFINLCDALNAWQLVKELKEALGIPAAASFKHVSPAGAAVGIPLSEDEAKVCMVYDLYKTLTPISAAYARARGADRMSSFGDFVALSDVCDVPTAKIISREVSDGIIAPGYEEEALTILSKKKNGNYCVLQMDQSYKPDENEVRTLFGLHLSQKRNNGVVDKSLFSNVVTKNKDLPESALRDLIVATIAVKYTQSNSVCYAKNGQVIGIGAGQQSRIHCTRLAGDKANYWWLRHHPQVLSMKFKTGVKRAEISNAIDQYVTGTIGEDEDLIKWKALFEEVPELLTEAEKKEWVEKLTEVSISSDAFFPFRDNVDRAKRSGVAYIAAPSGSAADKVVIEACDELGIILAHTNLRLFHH
UniProt Q9UI12, whole entry, looked up: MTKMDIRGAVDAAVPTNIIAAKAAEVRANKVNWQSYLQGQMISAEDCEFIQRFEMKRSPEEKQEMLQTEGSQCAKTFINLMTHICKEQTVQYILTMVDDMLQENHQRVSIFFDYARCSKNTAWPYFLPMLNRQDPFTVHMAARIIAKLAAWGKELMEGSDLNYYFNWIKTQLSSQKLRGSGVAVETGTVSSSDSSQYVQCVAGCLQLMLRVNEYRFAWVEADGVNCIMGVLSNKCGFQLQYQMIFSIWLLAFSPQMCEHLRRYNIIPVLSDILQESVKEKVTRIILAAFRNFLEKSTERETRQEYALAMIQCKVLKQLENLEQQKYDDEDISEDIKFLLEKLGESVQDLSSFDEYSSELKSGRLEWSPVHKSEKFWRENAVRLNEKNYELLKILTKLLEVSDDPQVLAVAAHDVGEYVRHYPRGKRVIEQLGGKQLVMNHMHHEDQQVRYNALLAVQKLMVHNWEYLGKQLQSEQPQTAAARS
UniProt Q9NQ11: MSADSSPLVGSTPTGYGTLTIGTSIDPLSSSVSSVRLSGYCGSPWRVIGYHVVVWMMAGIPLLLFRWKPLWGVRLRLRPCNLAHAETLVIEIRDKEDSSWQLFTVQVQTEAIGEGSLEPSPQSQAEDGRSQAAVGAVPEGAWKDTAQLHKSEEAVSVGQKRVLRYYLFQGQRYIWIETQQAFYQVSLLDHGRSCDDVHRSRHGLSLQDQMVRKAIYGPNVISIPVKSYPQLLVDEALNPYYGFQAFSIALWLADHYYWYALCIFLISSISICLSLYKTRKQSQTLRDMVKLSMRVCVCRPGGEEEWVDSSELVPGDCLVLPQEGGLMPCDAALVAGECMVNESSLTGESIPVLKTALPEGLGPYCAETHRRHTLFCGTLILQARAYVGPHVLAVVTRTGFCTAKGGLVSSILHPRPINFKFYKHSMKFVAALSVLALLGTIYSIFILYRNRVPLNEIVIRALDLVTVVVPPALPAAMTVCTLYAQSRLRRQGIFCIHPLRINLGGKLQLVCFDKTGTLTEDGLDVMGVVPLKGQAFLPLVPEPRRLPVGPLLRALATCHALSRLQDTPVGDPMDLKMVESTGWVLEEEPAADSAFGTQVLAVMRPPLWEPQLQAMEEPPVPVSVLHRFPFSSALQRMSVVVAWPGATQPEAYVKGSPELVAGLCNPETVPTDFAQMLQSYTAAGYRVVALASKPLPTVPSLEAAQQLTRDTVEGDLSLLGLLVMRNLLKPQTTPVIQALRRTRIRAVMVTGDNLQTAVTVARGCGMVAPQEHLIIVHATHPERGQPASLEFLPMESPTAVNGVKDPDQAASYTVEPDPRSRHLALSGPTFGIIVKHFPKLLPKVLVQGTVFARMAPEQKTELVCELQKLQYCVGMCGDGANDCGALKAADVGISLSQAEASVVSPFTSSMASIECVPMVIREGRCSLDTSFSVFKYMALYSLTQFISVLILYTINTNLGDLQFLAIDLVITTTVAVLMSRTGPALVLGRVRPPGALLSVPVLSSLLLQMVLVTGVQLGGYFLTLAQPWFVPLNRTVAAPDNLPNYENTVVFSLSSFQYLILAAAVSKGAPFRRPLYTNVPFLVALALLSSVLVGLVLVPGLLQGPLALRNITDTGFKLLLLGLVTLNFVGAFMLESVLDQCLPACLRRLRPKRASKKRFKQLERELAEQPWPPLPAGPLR
UniProt Q9Y4P1: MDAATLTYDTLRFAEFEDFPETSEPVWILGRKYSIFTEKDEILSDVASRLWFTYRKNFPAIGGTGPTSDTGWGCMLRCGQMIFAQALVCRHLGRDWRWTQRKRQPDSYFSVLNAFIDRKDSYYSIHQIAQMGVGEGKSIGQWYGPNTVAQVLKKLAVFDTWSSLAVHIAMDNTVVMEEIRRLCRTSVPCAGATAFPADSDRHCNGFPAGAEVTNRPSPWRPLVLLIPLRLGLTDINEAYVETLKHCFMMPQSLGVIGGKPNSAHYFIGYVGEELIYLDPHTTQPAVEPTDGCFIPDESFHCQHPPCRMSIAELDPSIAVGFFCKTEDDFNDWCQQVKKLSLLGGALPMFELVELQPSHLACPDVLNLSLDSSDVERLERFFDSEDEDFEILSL
UniProt O43861: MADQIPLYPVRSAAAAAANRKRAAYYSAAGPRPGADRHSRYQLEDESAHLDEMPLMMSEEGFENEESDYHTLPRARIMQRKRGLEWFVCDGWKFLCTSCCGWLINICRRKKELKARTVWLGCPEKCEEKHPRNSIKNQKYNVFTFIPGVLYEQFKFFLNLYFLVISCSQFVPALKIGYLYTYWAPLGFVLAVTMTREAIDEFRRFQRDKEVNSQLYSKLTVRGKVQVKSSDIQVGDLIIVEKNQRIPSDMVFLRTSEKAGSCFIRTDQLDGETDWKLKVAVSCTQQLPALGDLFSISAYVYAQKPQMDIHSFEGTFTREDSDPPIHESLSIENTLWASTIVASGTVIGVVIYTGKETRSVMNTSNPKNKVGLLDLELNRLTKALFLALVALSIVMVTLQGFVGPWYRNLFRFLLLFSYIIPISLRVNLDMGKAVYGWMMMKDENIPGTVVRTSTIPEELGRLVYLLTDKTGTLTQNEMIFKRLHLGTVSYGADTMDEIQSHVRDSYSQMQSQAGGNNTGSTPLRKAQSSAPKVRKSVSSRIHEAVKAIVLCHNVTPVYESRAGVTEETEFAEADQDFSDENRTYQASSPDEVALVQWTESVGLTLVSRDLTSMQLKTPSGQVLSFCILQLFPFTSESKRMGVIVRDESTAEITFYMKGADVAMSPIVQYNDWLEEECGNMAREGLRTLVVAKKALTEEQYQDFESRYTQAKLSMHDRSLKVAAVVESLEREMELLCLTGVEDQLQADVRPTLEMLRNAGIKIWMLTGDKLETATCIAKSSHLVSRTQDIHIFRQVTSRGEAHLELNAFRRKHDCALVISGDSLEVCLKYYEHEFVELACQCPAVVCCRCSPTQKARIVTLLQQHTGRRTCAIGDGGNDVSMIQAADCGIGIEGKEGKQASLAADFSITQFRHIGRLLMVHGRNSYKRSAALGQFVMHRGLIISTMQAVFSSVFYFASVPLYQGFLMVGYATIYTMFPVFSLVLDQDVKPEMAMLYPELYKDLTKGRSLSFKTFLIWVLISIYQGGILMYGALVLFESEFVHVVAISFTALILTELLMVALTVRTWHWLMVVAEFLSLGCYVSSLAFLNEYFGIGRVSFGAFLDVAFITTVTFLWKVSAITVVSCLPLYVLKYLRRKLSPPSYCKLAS
UniProt Q93050, whole entry, looked up: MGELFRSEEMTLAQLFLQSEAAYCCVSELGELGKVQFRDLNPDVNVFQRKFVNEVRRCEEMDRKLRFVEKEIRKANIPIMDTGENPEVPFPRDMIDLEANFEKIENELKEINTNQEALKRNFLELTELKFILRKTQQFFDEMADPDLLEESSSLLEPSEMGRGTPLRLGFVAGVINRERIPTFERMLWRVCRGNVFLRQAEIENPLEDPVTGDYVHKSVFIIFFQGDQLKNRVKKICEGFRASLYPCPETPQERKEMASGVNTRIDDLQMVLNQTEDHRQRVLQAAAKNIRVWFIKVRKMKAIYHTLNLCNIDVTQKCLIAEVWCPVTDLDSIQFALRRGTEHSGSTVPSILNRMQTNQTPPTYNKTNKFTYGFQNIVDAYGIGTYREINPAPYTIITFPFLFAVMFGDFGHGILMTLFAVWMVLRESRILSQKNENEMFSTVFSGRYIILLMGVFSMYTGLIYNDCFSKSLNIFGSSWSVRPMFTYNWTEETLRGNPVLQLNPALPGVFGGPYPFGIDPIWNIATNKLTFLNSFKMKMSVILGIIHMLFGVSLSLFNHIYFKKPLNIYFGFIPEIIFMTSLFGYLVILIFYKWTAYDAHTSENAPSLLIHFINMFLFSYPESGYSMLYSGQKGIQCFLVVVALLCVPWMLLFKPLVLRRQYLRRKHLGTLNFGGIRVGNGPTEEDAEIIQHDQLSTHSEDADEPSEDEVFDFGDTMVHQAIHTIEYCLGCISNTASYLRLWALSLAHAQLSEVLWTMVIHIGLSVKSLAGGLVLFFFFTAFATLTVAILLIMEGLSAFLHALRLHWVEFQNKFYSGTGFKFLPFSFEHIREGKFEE

Legend:
Assay in all cases: log2 fold change, soluble protein after heating vs DMSO (PISA); higher = thermal stabilisation; K562 lysate, 10 uM; active = over 0.2 and 3.5 SD of the protein, either way, in both replicates (recomputed)
lapatinib = compound: CS(=O)(=O)CCNCc1ccc(-c2ccc3ncnc(Nc4ccc(OCc5cccc(F)c5)c(Cl)c4)c3c2)o1 [lapatinib]
How it was run: (§1)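 Following dounce homogenisation of K562 pellets in PBS pH 7.4 with 1 mM MgCl2, crude extract at 1 mg/mL protein was incubated for 30 min with 10 μM compound. Aliquots were then heated for 3 min over 48°C-58°C and pooled, NP-40 was added to 0.5% at 4°C, and soluble protein was recovered as the supernatant at 21,000xg for 90 min. Channel-sum-equalised TMTpro 16plex LC-MS/MS quantified this protein. Each value, from duplicates, is a log-two fold change in thermal stability relative to solvent controls.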

pictilisib = compound: CS(=O)(=O)N1CCN(Cc2cc3nc(-c4cccc5[nH]ncc45)nc(N4CCOCC4)c3s2)CC1 [pictilisib]
How it was run: as §1

crizotinib = compound: C[C@@H](Oc1cc(-c2cnn(C3CCNCC3)c2)cnc1N)c1c(Cl)ccc(F)c1Cl [crizotinib]
How it was run: as §1

[1] = compound: C[C@H](C1=CC=C(C=C1)C(=O)NC2=C3C=CNC3=NC=C2)N
How it was run: as §1

duvelisib = compound: C[C@H](Nc1ncnc2nc[nH]c12)c1cc2cccc(Cl)c2c(=O)n1-c1ccccc1 [duvelisib]
How it was run: as §1

gandotinib = compound: Cc1cc(Nc2cc(CN3CCOCC3)c3nc(C)c(Cc4ccc(Cl)cc4F)n3n2)n[nH]1 [gandotinib]
How it was run: as §1

tozasertib = compound: Cc1cc(Nc2cc(N3CCN(C)CC3)nc(Sc3ccc(NC(=O)C4CC4)cc3)n2)n[nH]1 [tozasertib]
How it was run: as §1

doramapimod = compound: Cc1ccc(-n2nc(C(C)(C)C)cc2NC(=O)Nc2ccc(OCCN3CCOCC3)c3ccccc23)cc1 [doramapimod]
How it was run: as §1

bafetinib = compound: Cc1ccc(NC(=O)c2ccc(CN3CC[C@H](N(C)C)C3)c(C(F)(F)F)c2)cc1Nc1nccc(-c2cncnc2)n1 [bafetinib]
How it was run: as §1

[2] = compound: Cc1cccc(CC(=O)N2CCc3c2ccc(-c2cn(C)c4ncnc(N)c24)c3F)n1
How it was run: as §1

nilotinib = compound: Cc1cn(-c2cc(NC(=O)c3ccc(C)c(Nc4nccc(-c5cccnc5)n4)c3)cc(C(F)(F)F)c2)cn1 [nilotinib]
How it was run: as §1

[3] = compound: Cc1nc(Nc2n[nH]c3c2CN(C(=O)N[C@H](CN(C)C)c2ccccc2)C3(C)C)c2sccc2n1
How it was run: as §1

dasatinib = compound: Cc1nc(Nc2ncc(C(=O)Nc3c(C)cccc3Cl)s2)cc(N2CCN(CCO)CC2)n1 [dasatinib]
How it was run: as §1

[4] = compound: Cc1ncc(-c2ccnc(Nc3ccc(S(C)(=O)=O)cc3)n2)n1C(C)C
How it was run: as §1

[5] = compound: Cn1cc(-c2ccc3c(c2)CCN3C(=O)Cc2cccc(C(F)(F)F)c2)c2c(N)ncnc21
How it was run: as §1

quisinostat = compound: Cn1cc(CNCC2CCN(c3ncc(C(=O)NO)cn3)CC2)c2ccccc21 [quisinostat]
How it was run: as §1

tipifarnib = compound: Cn1cncc1[C@@](N)(c1ccc(Cl)cc1)c1ccc2c(c1)c(-c1cccc(Cl)c1)cc(=O)n2C [tipifarnib]
How it was run: as §1

[6] = compound: NC(=O)Nc1cc(-c2cccc(F)c2)sc1C(=O)N[C@H]1CCCNC1
How it was run: as §1

[7] = compound: NC(=O)c1cnc(N[C@@H]2CCCC[C@@H]2N)nc1Nc1cccc(-n2nccn2)c1
How it was run: as §1

[8] = compound: NC1(c2ccc(-c3nc4ccn5c(=O)[nH]nc5c4cc3-c3ccccc3)cc2)CCC1
How it was run: as §1

Target | log2 fold change (lapatinib) | log2 fold change (pictilisib) | log2 fold change (crizotinib) | log2 fold change [1] | log2 fold change (duvelisib) | log2 fold change (gandotinib) | log2 fold change (tozasertib) | log2 fold change (doramapimod) | log2 fold change (bafetinib) | log2 fold change [2] | log2 fold change (nilotinib) | log2 fold change [3] | log2 fold change (dasatinib) | log2 fold change [4] | log2 fold change [5] | log2 fold change (quisinostat) | log2 fold change (tipifarnib) | log2 fold change [6] | log2 fold change [7] | log2 fold change [8]
ASPSCR1 (UniProt Q9BZE9) | inactive: -0.026 | inactive: -0.025 | inactive: 0.014 | inactive: 0.008 | inactive: 0.015 | inactive: -0.014 | inactive: 0.036 | inactive: -0.003 | inactive: 0.003 | inactive: 0.035 | inactive: 0.014 | inactive: -0.03 | inactive: -0.002 | inactive: -0.007 | inactive: 0.018 | inactive: -0.019 | inactive: 0.004 | inactive: -0.01 | inactive: 0.025 | inactive: 0.025
ATP5PO (UniProt P48047) | inactive: -0.027 | inactive: 0.012 | inactive: 0.02 | inactive: 0.034 | inactive: -0.036 | inactive: -0.033 | inactive: -0.013 | inactive: -0.032 | inactive: 0.12 | inactive: -0.062 | inactive: 0 | inactive: -0.013 | inactive: 0.02 | inactive: 0.005 | inactive: -0.016 | inactive: 0.027 | inactive: 0.003 | inactive: 0.006 | inactive: -0.007 | inactive: 0.011
AXIN1 (UniProt O15169) | inactive: -0.072 | inactive: -0.045 | inactive: -0.139 | inactive: 0.032 | inactive: 0.209 | inactive: -0.016 | inactive: -0.083 | inactive: 0.006 | inactive: 0.045 | inactive: 0.078 | inactive: -0.042 | inactive: -0.1 | inactive: 0.078 | inactive: -0.02 | inactive: -0.15 | inactive: -0.249 | inactive: -0.058 | inactive: 0.072 | inactive: 0 | inactive: -0.252
ATP6V1C1 (UniProt P21283) | inactive: -0.003 | inactive: -0.002 | inactive: -0.036 | inactive: -0.014 | inactive: -0.012 | inactive: -0.032 | inactive: 0.01 | inactive: 0.025 | inactive: 0.02 | inactive: -0.005 | inactive: -0.023 | inactive: 0.006 | inactive: -0.011 | inactive: 0.004 | inactive: 0.03 | inactive: -0.013 | inactive: 0.01 | inactive: -0.019 | inactive: 0.019 | inactive: 0.014
ATP2B4 (UniProt P23634) | inactive: -0.022 | inactive: -0.018 | inactive: 0.018 | inactive: -0.166 | inactive: 0.053 | inactive: 0.082 | inactive: 0.046 | inactive: 0.049 | inactive: -0.125 | active: 0.221 | inactive: -0.05 | inactive: 0.098 | inactive: -0.031 | inactive: 0.003 | inactive: 0.021 | inactive: 0.164 | inactive: -0.028 | inactive: -0.019 | inactive: 0.019 | inactive: 0.008
ATIC (UniProt P31939) | inactive: -0.006 | inactive: -0.023 | inactive: -0.032 | inactive: 0.03 | inactive: -0.022 | inactive: -0.021 | inactive: -0.033 | inactive: -0.011 | inactive: 0.01 | inactive: -0.016 | inactive: 0.005 | inactive: -0.002 | inactive: -0.011 | inactive: 0 | inactive: 0.001 | inactive: 0.008 | inactive: 0.022 | inactive: -0.001 | inactive: -0.003 | inactive: -0.006
ATN1 (UniProt P54259) | inactive: -0.004 | inactive: -0.03 | inactive: 0.023 | inactive: -0.06 | inactive: 0.009 | inactive: 0.14 | inactive: 0.036 | inactive: -0.024 | inactive: 0.08 | inactive: 0.124 | inactive: -0.001 | inactive: 0.043 | inactive: -0.005 | inactive: 0.035 | inactive: -0.006 | inactive: 0.01 | inactive: 0.026 | inactive: 0.044 | inactive: 0.074 | inactive: 0.017
ATP6V1H (UniProt Q9UI12) | inactive: -0.03 | inactive: -0.036 | inactive: -0.038 | inactive: -0.043 | inactive: 0.014 | inactive: -0.017 | inactive: 0.023 | inactive: 0.035 | inactive: 0.016 | inactive: -0.007 | inactive: -0.006 | inactive: -0.006 | inactive: -0.021 | inactive: -0.002 | inactive: 0.021 | inactive: -0.05 | inactive: -0.003 | inactive: 0.007 | inactive: 0.021 | inactive: 0.002
ATP13A2 (UniProt Q9NQ11) | inactive: -0.04 | inactive: -0.014 | inactive: 0.078 | inactive: -0.054 | inactive: 0.043 | inactive: -0.03 | inactive: -0.008 | inactive: 0.017 | inactive: -0.064 | inactive: 0 | inactive: -0.017 | inactive: -0.076 | inactive: -0.013 | inactive: 0.056 | inactive: 0.04 | inactive: -0.001 | inactive: 0.035 | inactive: -0.017 | inactive: 0.049 | inactive: -0.012
ATF7IP isoform 4 (UniProt Q6VMQ6) | inactive: -0.006 | inactive: 0.017 | inactive: 0.014 | inactive: 0.077 | inactive: 0.017 | inactive: -0.039 | inactive: 0.059 | inactive: -0.008 | inactive: -0.005 | inactive: -0.017 | inactive: 0.048 | inactive: 0.001 | inactive: 0.007 | inactive: 0.002 | inactive: -0.034 | inactive: -0.017 | inactive: 0.027 | inactive: 0.01 | inactive: 0.035 | inactive: 0.032
ATG4B (UniProt Q9Y4P1) | inactive: 0.012 | inactive: -0.042 | inactive: -0.087 | inactive: 0.114 | inactive: 0.01 | inactive: -0.128 | inactive: -0.013 | inactive: 0.004 | inactive: -0.008 | inactive: -0.059 | inactive: 0.045 | inactive: 0.001 | inactive: -0.049 | inactive: 0.008 | inactive: 0.044 | inactive: -0.055 | inactive: -0.019 | inactive: 0.024 | inactive: -0.05 | inactive: 0.005
ATP9B (UniProt O43861) | inactive: -0.063 | inactive: -0.269 | inactive: 0.032 | inactive: -0.181 | inactive: -0.005 | inactive: -0.037 | inactive: 0.017 | inactive: 0.136 | active: 0.446 | inactive: 0.242 | inactive: 0.05 | inactive: 0.164 | inactive: -0.04 | inactive: -0.069 | inactive: -0.049 | inactive: 0.009 | inactive: -0.08 | inactive: -0.021 | inactive: 0.107 | inactive: 0.064
ATP2A3 isoform 2 (UniProt Q93084) | inactive: 0.012 | inactive: -0.02 | inactive: -0.05 | inactive: 0.079 | inactive: 0.01 | inactive: -0.144 | inactive: 0.032 | inactive: -0.011 | inactive: -0.088 | inactive: -0.008 | inactive: -0.078 | inactive: 0.042 | inactive: -0.077 | inactive: 0.047 | inactive: 0.025 | inactive: -0.058 | inactive: 0.049 | inactive: 0.031 | inactive: -0.007 | inactive: 0.024
ATP13A3 (UniProt Q9H7F0) | inactive: -0.029 | inactive: -0.056 | inactive: -0.008 | inactive: -0.172 | inactive: 0.005 | inactive: 0.047 | inactive: -0.023 | inactive: 0.051 | inactive: -0.107 | inactive: 0.15 | inactive: 0.01 | inactive: 0.026 | inactive: 0.009 | inactive: 0.026 | inactive: 0.04 | inactive: -0.05 | inactive: 0.052 | inactive: 0.017 | inactive: 0.006 | inactive: 0.024
ATP6V0A1 isoform 3 (UniProt Q93050) | inactive: -0.016 | inactive: -0.008 | inactive: 0.016 | inactive: -0.058 | inactive: 0.008 | inactive: 0.04 | inactive: 0.059 | inactive: -0.03 | inactive: 0.023 | inactive: 0.032 | inactive: 0.057 | inactive: -0.014 | inactive: -0.009 | inactive: 0.023 | inactive: 0.001 | inactive: 0.036 | inactive: -0.03 | inactive: -0.04 | inactive: 0.019 | inactive: 0.001
ASNA1 (UniProt O43681) | inactive: -0.01 | inactive: -0.001 | inactive: -0.023 | inactive: -0.065 | inactive: -0.012 | inactive: -0.034 | inactive: -0.012 | inactive: 0.013 | inactive: -0.024 | inactive: -0.021 | inactive: -0.029 | inactive: 0.008 | inactive: -0.081 | inactive: 0.01 | inactive: 0.015 | inactive: 0.011 | inactive: 0.022 | inactive: -0.005 | inactive: -0.025 | inactive: -0.01

In another format: entries from further up.

| Target | log2 fold change (lapatinib) | log2 fold change (pictilisib) | log2 fold change (crizotinib) | log2 fold change [1] | log2 fold change (duvelisib) | log2 fold change (gandotinib) | log2 fold change (tozasertib) | log2 fold change (doramapimod) | log2 fold change (bafetinib) | log2 fold change [2] | log2 fold change (nilotinib) | log2 fold change [3] | log2 fold change (dasatinib) | log2 fold change [4] | log2 fold change [5] | log2 fold change (quisinostat) | log2 fold change (tipifarnib) | log2 fold change [6] | log2 fold change [7] | log2 fold change [8] |
| --- | --- | --- | --- | --- | --- | --- | --- | --- | --- | --- | --- | --- | --- | --- | --- | --- | --- | --- | --- | --- |
| ATF7IP isoform 4 (UniProt Q6VMQ6) | inactive: -0.006 | inactive: 0.017 | inactive: 0.014 | inactive: 0.077 | inactive: 0.017 | inactive: -0.039 | inactive: 0.059 | inactive: -0.008 | inactive: -0.005 | inactive: -0.017 | inactive: 0.048 | inactive: 0.001 | inactive: 0.007 | inactive: 0.002 | inactive: -0.034 | inactive: -0.017 | inactive: 0.027 | inactive: 0.01 | inactive: 0.035 | inactive: 0.032 |
| ATG4B (UniProt Q9Y4P1) | inactive: 0.012 | inactive: -0.042 | inactive: -0.087 | inactive: 0.114 | inactive: 0.01 | inactive: -0.128 | inactive: -0.013 | inactive: 0.004 | inactive: -0.008 | inactive: -0.059 | inactive: 0.045 | inactive: 0.001 | inactive: -0.049 | inactive: 0.008 | inactive: 0.044 | inactive: -0.055 | inactive: -0.019 | inactive: 0.024 | inactive: -0.05 | inactive: 0.005 |
| ATP9B (UniProt O43861) | inactive: -0.063 | inactive: -0.269 | inactive: 0.032 | inactive: -0.181 | inactive: -0.005 | inactive: -0.037 | inactive: 0.017 | inactive: 0.136 | active: 0.446 | inactive: 0.242 | inactive: 0.05 | inactive: 0.164 | inactive: -0.04 | inactive: -0.069 | inactive: -0.049 | inactive: 0.009 | inactive: -0.08 | inactive: -0.021 | inactive: 0.107 | inactive: 0.064 |
| ATP2A3 isoform 2 (UniProt Q93084) | inactive: 0.012 | inactive: -0.02 | inactive: -0.05 | inactive: 0.079 | inactive: 0.01 | inactive: -0.144 | inactive: 0.032 | inactive: -0.011 | inactive: -0.088 | inactive: -0.008 | inactive: -0.078 | inactive: 0.042 | inactive: -0.077 | inactive: 0.047 | inactive: 0.025 | inactive: -0.058 | inactive: 0.049 | inactive: 0.031 | inactive: -0.007 | inactive: 0.024 |
